Source: ChEMBL document CHEMBL3988442, “University of Dundee, Small-Polar-MMV Screening Library” (2021).

Mtb growth Cornell: 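Whole-cell assay for inhibitors of Mycobacterium tuberculosis growth, labelled Cornell in the record; the read-out is not stated. The concentration is filed as 10 mM, unlikely as a test dose, so the dose is not known. Higher means stronger inhibition (inferred from two other growth screens of the library). Of about 53,000 compounds tested this way, about 900 (1.7%) reached 50% or more in at least one test.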
Mtb heat-shock: 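Assay on Mycobacterium tuberculosis, filed only as a heat shock assay from Cornell; the read-out is not stated. The concentration is filed as 10 mM, unlikely as a test dose, so the dose is not known. Higher reads as stronger inhibition (inferred: compounds with an IC50 in retests scored well above the rest). Of about 69,000 compounds tested this way, about 930 (1.4%) reached 50% or more in at least one test.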

Values are the deposited “Percent Effect”, in %. The controls that fix the scale are not given in the record; negative values are as filed. Compounds were drawn at random from those tested, without regard to their results. A dash means the value is not listed here; it may have been measured.

| # | Compound | Mtb growth Cornell | Mtb heat-shock |
|---|---|---|---|
| 1 | `COC1COC2(CCN(CC3CC3)CC2)C1.O=C(O)C(F)(F)F` (stereo not shown) | -1.027% | -5.009% |
| 2 | `O=C(O)C(F)(F)F.O=C(O)C(F)(F)F.[H][C@@]12OCCN(Cc3csc(C)n3)[C@@]1([H])CC[C@@H]2Oc1ccccn1` | - | -30.74% |
| 3 | `COC(=O)c1ccc(N(C(=O)c2ccncc2)C(C)C)c(C)c1` | -0.009666% | 2.358% |
| 4 | `CSc1ccc(NC(=O)NCC(O)C2CC2)cc1F` (stereo not shown) | 25.87% | -2.01% |
| 5 | `CC(C)c1nnc2n1CCN(Cc1cc(Cl)c3c(c1)OCO3)C2` | 9.424% | -13.65% |
| 6 | `O=C(Nc1ccc(Cl)cn1)C1CCCN(Cc2ccccn2)C1` (stereo not shown) | -36.87% | 47.23% |
| 7 | `Cc1noc(C)c1CS(=O)(=O)CC(=O)N(C)Cc1cccc(F)c1` | 8.896% | 21.15% |
| 8 | `CC(CNC(=O)c1ccon1)Oc1cccc(Br)c1` (stereo not shown) | 18.15% | 4.977% |
| 9 | `Cc1nccn1-c1ccc(CN2CC3C[C@@H](O)CN3C[C@@H]2C)cc1` (stereo partly shown) | 2.634% | 7.851% |
| 10 | `COc1ccnc(N(C)Cc2ccccc2OC(F)(F)F)n1` | -0.01012% | 2.749% |
| 11 | `CN(Cc1nnc(C2CC2)o1)C1CCN(CCc2cccs2)C1` (stereo not shown) | 2.104% | -5.224% |
| 12 | `Cc1nn(CCC#N)c(C)c1CCC(=O)N(C)Cc1ccsc1` | 14.33% | 6.936% |
| 13 | `CCC(O)CN1CCN(C(=O)c2cccn2Cc2cccnc2)CC1` (stereo not shown) | - | -22.35% |
| 14 | `Cl.Cl.[H][C@@]12CNCC[C@]1([H])N(C(C)C)[C@H](Cn1cncn1)C2` | 0.9264% | -1.947% |
| 15 | `COCC1COCCC12CCN(C(=O)Cc1cccc(OC)c1)CC2` (stereo not shown) | 10.7% | -26.37% |
| 16 | `COCCN1CC(C(=O)Nc2ccc3c(c2)CCC(=O)N3C)CC1=O` (stereo not shown) | -14.74% | 5.272% |
| 17 | `CCc1noc(CNc2ccc(F)cc2OCC2CC2)n1` | - | 15.06% |
| 18 | `Cc1ncnc(NC(CC(C)(C)C)c2cccnc2)c1C` (stereo not shown) | -18.29% | -10.02% |
| 19 | `[H][C@@]12CN(C(=O)c3ccc(N(C)C)cc3)C[C@]1([H])OCCN2C(C)C` | -15.04% | 0.8435% |
| 20 | `COc1ccccc1C(C)NC(=O)NCCC(=O)NC1CCCCC1` (stereo not shown) | -10.7% | -3.765% |
| 21 | `COC(=O)c1cccc(CNC(=O)CC(F)(F)F)c1` | 1.698% | -12.14% |
| 22 | `O=C(NCc1nnc2ccccn12)N1CCOC(c2ccsc2)C1` (stereo not shown) | - | 4.565% |
| 23 | `O=C(O)C(F)(F)F.[H][C@@]12CCCO[C@]1([H])[C@H](NC(=O)c1cnoc1C)CN(CCOCC)C2` | 0.357% | 32.03% |
| 24 | `Cc1nn(CC(C)C)c(C)c1CC(=O)N1CCCC(CNS(C)(=O)=O)C1` (stereo not shown) | -3.708% | 5.436% |
| 25 | `CCC(CC)C(=O)N1CCOC2(CNC2)C1` | - | -4.003% |
| 26 | `COc1ccc(C)c2c1N(C(=O)c1ccc3nnc(C)n3c1)CCC2` | -25.93% | 8.563% |
| 27 | `COC(=O)c1ccc(N2CCN(C(=O)C3CC3)C(C)C2)cc1` (stereo not shown) | -1.344% | -30.55% |
| 28 | `O=S(=O)(CCc1ccccc1)Nc1cc(Cl)ccn1` | 42.05% | -2.135% |
| 29 | `Cc1ccccc1C(=O)N1CC[C@H](O)[C@@H](N2CCOCC2)CC1` | 45.8% | 17.63% |
| 30 | `O=C(O)C(F)(F)F.[H][C@]12CCN(c3ncccn3)C[C@@]1([H])CN(Cc1cccnc1OC)C2` | -6.615% | 2.411% |
| 31 | `[H][C@@]12C[C@H](C(=O)N3CCCC3)[C@@]([H])(CN(C(=O)NCCc3ccccc3)C1)O2` | -33.06% | 8.314% |
| 32 | `Cc1ccc2c(c1)CN(C(=O)c1ccncc1)C(CN(C)C)CO2.Cl` (stereo not shown) | 17.2% | -12.12% |
| 33 | `CC(=O)N1CCN(C(=O)Nc2cnc3c(cnn3C(C)C)c2)CC1` | - | -18.19% |
| 34 | `O=C(Cc1ccsc1)N1CCN(CC2CC2)c2ncccc2C1.O=C(O)C(F)(F)F` | 5.085% | -7.798% |
| 35 | `Fc1cccc(CCN(c2ccc3nnnn3n2)C2CC2)c1` | - | -1.375% |
| 36 | `CC(Cn1cc(Br)cn1)C(=O)Nc1ccn(C)n1` (stereo not shown) | -1.389% | 4.977% |
| 37 | `Cc1nccc(C2CCCN(S(=O)(=O)N3CCOCC3)C2)n1` (stereo not shown) | -28.46% | -10.89% |
| 38 | `CC(CC#N)n1ccc(C(F)(F)F)n1` (stereo not shown) | -88.93% | 0.3292% |
| 39 | `CCN(CC)C(=O)CN(C)CCn1nc2ccccn2c1=O` | 6.471% | -0.7459% |
| 40 | `CNC(=O)NC(=O)CCN1CCN(c2nccs2)CC1` | - | 23.87% |
| 41 | `CCN(CC)C(CNC(=O)c1c(C)noc1C(C)C)c1ccsc1` (stereo not shown) | 13.71% | -21.66% |
| 42 | `O=C(NCCNC(=O)N1CCC(c2ccccc2)C1)C1CC1` (stereo not shown) | - | -19.5% |
| 43 | `CN1CC(=O)N(c2ccsc2)CC12CCN(C(=O)c1ccc[nH]1)C2` (stereo not shown) | -18.16% | -33.36% |
| 44 | `CN1CCC(NC(=O)c2cc(F)cc(Cl)c2O)C1=O` (stereo not shown) | 24.37% | 4.088% |
| 45 | `O=C(CN1CCOC(Cn2cccn2)C1)Nc1ccncc1` (stereo not shown) | 5.81% | -11.89% |
| 46 | `CN(C)S(=O)(=O)c1ccc(-c2nc(C#N)c(NC(C)(C)C)o2)o1.Cl` | 104.3% | 74.72% |
| 47 | `Cc1cc(C(=O)N2CC[C@H](OCC3CC3)[C@@H]2Cc2cccnc2)no1` | 17.33% | -0.8252% |
| 48 | `CC(C)CS(=O)(=O)CC(=O)N(C)Cc1ccc(OC(F)F)cc1` | - | -2.11% |
| 49 | `Cc1nc(C)n(CC2CCCN2c2ccnc(-c3ccccc3)n2)n1` (stereo not shown) | - | 1.708% |
| 50 | `CN(Cc1ccc([S+](C)[O-])cc1)c1ccc(Cl)cn1` (stereo not shown) | -5.669% | 8.46% |
| 51 | `[H][C@@]12CCN(C(=O)COCC)C[C@]1([H])[C@H](c1nnc(C)o1)CCO2` | -21.92% | 0.3351% |
| 52 | `COc1ccc(CNC(=O)CNc2cc3c(cc2Cl)OCCCO3)cc1` | 53.68% | -10.33% |
| 53 | `Cc1cn2nc(N3CCCCC3Cn3cccn3)sc2n1` (stereo not shown) | - | -12.9% |
| 54 | `CN1CCN(CC(CC(=O)Nc2ccc(Cl)cc2)C(=O)O)CC1` (stereo not shown) | 46.61% | -9.262% |
| 55 | `COc1ccc(C2CN(c3ncccn3)CCN2C(C)=O)cc1` (stereo not shown) | -24.16% | 14.08% |
| 56 | `O=C(O)C(F)(F)F.O=C(c1ccncc1)N1CCC2(CCCN(c3ncc(F)cn3)C2)C1` (stereo not shown) | 14.17% | 13.89% |
| 57 | `NCc1cn(CC2CCCN(C(=O)NCc3ccc(Cl)cc3)C2)nn1` (stereo not shown) | 7.393% | 4.479% |
| 58 | `COCCN(Cc1ccc(C)o1)C(=O)Nc1nnc2ccccn12` | -24.52% | -15.22% |
| 59 | `NC(=O)c1nnn(-c2ccc(Br)cc2)n1` | -2.902% | 14.06% |
| 60 | `Cc1cc(C(=O)N2CCCC(c3noc(C)n3)C2)[nH]n1` (stereo not shown) | -24.2% | -18.52% |
| 61 | `CCN(C)C[C@@H]1CN(S(=O)(=O)c2cccc(Cl)c2)C[C@@H]1CO` | - | -17.08% |
| 62 | `Cc1cc(C(=O)N2CCc3ncc(CN4CCCCC4)n3CC2)no1` | -30.56% | -4.327% |
| 63 | `CC(NC(=O)CCC(=O)c1cccs1)c1nnc2n1CCCCC2` (stereo not shown) | -3.892% | 17.81% |
| 64 | `CC(C)c1noc(CNC2CCCN(Cc3noc(C4CC4)n3)C2)n1` (stereo not shown) | - | -9.431% |
| 65 | `Cc1ccsc1C(=O)N1CCCN(Cc2cscn2)CC1` | - | -2.342% |
| 66 | `CCc1ccc(NC(=O)N2Cc3c(CN(C)C)nn(C)c3C2)cc1.O=C(O)C(F)(F)F` | 31.19% | -5.812% |
| 67 | `O=C(CCCOCc1ccccc1)N1CCCC(n2cncn2)C1` (stereo not shown) | - | -6.497% |

For reference, 9 entries once more:

- CCN(C)C[C@@H]1CN(S(=O)(=O)c2cccc(Cl)c2)C[C@@H]1CO | Mtb heat-shock: -17.08%
- Cl.Cl.[H][C@@]12CNCC[C@]1([H])N(C(C)C)[C@H](Cn1cncn1)C2 | Mtb growth Cornell: 0.9264%; Mtb heat-shock: -1.947%
- CN1CCC(NC(=O)c2cc(F)cc(Cl)c2O)C1=O (stereo not shown) | Mtb growth Cornell: 24.37%; Mtb heat-shock: 4.088%
- CCc1noc(CNc2ccc(F)cc2OCC2CC2)n1 | Mtb heat-shock: 15.06%
- Cc1nccc(C2CCCN(S(=O)(=O)N3CCOCC3)C2)n1 (stereo not shown) | Mtb growth Cornell: -28.46%; Mtb heat-shock: -10.89%
- COc1ccc(C2CN(c3ncccn3)CCN2C(C)=O)cc1 (stereo not shown) | Mtb growth Cornell: -24.16%; Mtb heat-shock: 14.08%
- O=C(Cc1ccsc1)N1CCN(CC2CC2)c2ncccc2C1.O=C(O)C(F)(F)F | Mtb growth Cornell: 5.085%; Mtb heat-shock: -7.798%
- O=S(=O)(CCc1ccccc1)Nc1cc(Cl)ccn1 | Mtb growth Cornell: 42.05%; Mtb heat-shock: -2.135%
- CC(C)c1nnc2n1CCN(Cc1cc(Cl)c3c(c1)OCO3)C2 | Mtb growth Cornell: 9.424%; Mtb heat-shock: -13.65%